The record followed here is paper PMC10403363, “Mechanism of ribosome-associated mRNA degradation during tubulin autoregulation” (Molecular Cell, 2023).

For test [1], the target named is T1, human 6xHis-TEV-Twin-Strep-TTC5-K97A (human) (UniProt Q8N0Z6).
T1 sequence: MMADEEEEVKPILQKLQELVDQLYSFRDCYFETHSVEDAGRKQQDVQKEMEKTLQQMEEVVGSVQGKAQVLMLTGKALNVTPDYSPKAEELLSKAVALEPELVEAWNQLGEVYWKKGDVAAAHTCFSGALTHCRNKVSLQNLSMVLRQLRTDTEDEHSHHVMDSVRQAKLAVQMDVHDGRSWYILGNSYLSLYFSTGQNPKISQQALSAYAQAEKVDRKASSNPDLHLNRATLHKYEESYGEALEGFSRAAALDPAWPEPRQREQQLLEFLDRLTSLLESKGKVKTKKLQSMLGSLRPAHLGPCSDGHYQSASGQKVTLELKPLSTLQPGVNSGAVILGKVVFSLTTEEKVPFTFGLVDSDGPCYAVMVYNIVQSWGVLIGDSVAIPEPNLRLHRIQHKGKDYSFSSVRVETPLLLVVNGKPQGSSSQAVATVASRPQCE
Description: pull-down; 100 nM SCAPER-FLAG and 150 nM Strep-TTC5 in IP buffer (50 mM HEPES pH 7.4, 100 mM KAc, 5 mM MgAc2, 1 mM DTT, 0.01% digitonin), 4°C; Streptactin magnetic beads; Coomassie; both purified.

Test [2] deals with T2, human 6xHis-TEV-Twin-Strep-TTC5 (human) (UniProt Q8N0Z6).
T2 sequence: T1 sequence with A97K
Nature of the test: condition: only RNCs with the MHQV mutant β-tubulin instead of wild-type β-tubulin; pull-down; as a4, but RNCs with the MHQV mutant β-tubulin; both purified.

Test [3] deals with T2, human 6xHis-TEV-Twin-Strep-TTC5 (human). Description: pull-down; as a4, but reactions lacking β-tubulin RNCs; both purified.
Test [4] addresses T1, human 6xHis-TEV-Twin-Strep-TTC5-K97A (human). Nature of the test: pull-down; recombinant FLAG-SCAPER and Strep-TTC5 (100-250 nM) present during translation of the 64-residue TUBB nascent chain in rabbit reticulocyte lysate; Streptactin Sepharose pull-down via TTC5, biotin elution; western blot; both purified.

Substitutions are numbered along the chain they refer to. No constants are given. Whether binding was seen depends on the method and setting. Sequences can lack the tags named with a protein.

B1: human SCAPER-FLAG (recombinant, purified) (protein, UniProt Q9BY12 1-1400)
chain: MMASFQRSNSHDKVRRIVAEEGRTARNLIAWSVPLESKDDDGKPKCQTGGKSKRTIQGTHKTTKQSTAVDCKITSSTTGDKHFDKSPTKTRHPRKIDLRARYWAFLFDNLRRAVDEIYVTCESDQSVVECKEVLMMLDNYVRDFKALIDWIQLQEKLEKTDAQSRPTSLAWEVKKMSPGRHVIPSPSTDRINVTSNARRSLNFGGSTGTVPAPRLAPTGVSWADKVKAHHTGSTASSEITPAQSCPPMTVQKASRKNERKDAEGWETVQRGRPIRSRSTAVMPKVSLATEATRSKDDSDKENVCLLPDESIQKGQFVGDGTSNTIESHPKDSLHSCDHPLAEKTQFTVSTLDDVKNSGSIRDNYVRTSEISAVHIDTECVSVMLQAGTPPLQVNEEKFPAEKARIENEMDPSDISNSMAEVLAKKEELADRLEKANEEAIASAIAEEEQLTREIEAEENNDINIETDNDSDFSASMGSGSVSFCGMSMDWNDVLADYEARESWRQNTSWGDIVEEEPARPPGHGIHMHEKLSSPSRKRTIAESKKKHEEKQMKAQQLREKLREEKTLKLQKLLEREKDVRKWKEELLDQRRRMMEEKLLHAEFKREVQLQAIVKKAQEEEAKVNEIAFINTLEAQNKRHDVLSKLKEYEQRLNELQEERQRRQEEKQARDEAVQERKRALEAERQARVEELLMKRKEQEARIEQQRQEKEKAREDAARERARDREERLAALTAAQQEAMEELQKKIQLKHDESIRRHMEQIEQRKEKAAELSSGRHANTDYAPKLTPYERKKQCSLCNVLISSEVYLFSHVKGRKHQQAVRENTSIQGRELSDEEVEHLSLKKYIIDIVVESTAPAEALKDGEERQKNKKKAKKIKARMNFRAKEYESLMETKNSGSDSPYKAKLQRLAKDLLKQVQVQDSGSWANNKVSALDRTLGEITRILEKENVADQIAFQAAGGLTALEHILQAVVPATNVNTVLRIPPKSLCNAINVYNLTCNNCSENCSDVLFSNKITFLMDLLIHQLTVYVPDENNTILGRNTNKQVFEGLTTGLLKVSAVVLGCLIANRPDGNCQPATPKIPTQEMKNKPSQGDPFNNRVQDLISYVVNMGLIDKLCACFLSVQGPVDENPKMAIFLQHAAGLLHAMCTLCFAVTGRSYSIFDNNRQDPTGLTAALQATDLAGVLHMLYCVLFHGTILDPSTASPKENYTQNTIQVAIQSLRFFNSFAALHLPAFQSIVGAEGLSLAFRHMASSLLGHCSQVSCESLLHEVIVCVGYFTVNHPDNQVIVQSGRHPTVLQKLCQLPFQYFSDPRLIKVLFPSLIAACYNNHQNKIILEQEMSCVLLATFIQDLAQTPGQAENQPYQPKGKCLGSQDYLELANRFPQQAWEEARQFFLKKEKK
In the case of B1, the binding entry in test [1] is recorded as “no binding (tested: 100 nM SCAPER, 150 nM TTC5)”.

B2: human FLAG-SCAPER (recombinant, purified) (protein, UniProt Q9BY12 1-1400)
chain: B1 chain
For the molecule B2, the binding entry in test [2] is “no binding”; in test [3], “no binding (condition: reactions lacking β-tubulin RNCs)”; in test [4], “no binding (tested: 100–250 nM)”.
